Experimental data taken from PMC4673834.
Results are given in words; binding and its absence hold for the method and conditions named. In cells and extracts the contact can be indirect. Some entries that bind do so weakly or less than the wild type. For some assays here: Where a sequence is shown, tags or fusion partners need not be part of it.

Amino acid sequences for entries named in this document (tags omitted).
UniProt O70237: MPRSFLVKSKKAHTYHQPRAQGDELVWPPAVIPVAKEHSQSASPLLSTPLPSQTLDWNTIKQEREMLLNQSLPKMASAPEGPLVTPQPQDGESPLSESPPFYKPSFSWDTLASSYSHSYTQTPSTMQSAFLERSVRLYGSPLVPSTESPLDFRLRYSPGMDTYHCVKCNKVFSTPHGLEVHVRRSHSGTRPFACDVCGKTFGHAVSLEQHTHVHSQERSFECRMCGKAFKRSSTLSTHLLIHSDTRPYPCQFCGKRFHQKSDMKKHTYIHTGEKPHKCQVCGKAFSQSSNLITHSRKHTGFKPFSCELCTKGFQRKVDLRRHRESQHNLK

T1: ETO2 (endogenous) (mouse (endogenous in MEL)) (UniProt O54972)
T1 sequence: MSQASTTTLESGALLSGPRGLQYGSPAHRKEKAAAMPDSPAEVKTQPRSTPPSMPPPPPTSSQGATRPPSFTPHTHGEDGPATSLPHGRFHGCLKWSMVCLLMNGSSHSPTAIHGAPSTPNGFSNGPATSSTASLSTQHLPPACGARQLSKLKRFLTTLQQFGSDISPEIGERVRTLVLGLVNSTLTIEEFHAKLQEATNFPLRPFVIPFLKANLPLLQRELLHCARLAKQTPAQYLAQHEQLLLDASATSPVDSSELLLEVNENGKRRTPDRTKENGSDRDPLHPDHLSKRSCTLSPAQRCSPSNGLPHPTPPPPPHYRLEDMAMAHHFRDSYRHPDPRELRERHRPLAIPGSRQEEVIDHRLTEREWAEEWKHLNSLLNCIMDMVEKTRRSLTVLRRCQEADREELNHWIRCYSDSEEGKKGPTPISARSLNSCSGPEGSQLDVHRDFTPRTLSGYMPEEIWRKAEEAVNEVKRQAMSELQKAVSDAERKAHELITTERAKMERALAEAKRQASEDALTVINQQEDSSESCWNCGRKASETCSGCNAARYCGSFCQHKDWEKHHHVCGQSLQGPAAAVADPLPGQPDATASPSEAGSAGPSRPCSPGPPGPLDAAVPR

T2: ETO2-V5-Bio (UniProt O54972)
T2 sequence (chain, Bio peptide of the tag biotinylated by the bacterial BirA enzyme): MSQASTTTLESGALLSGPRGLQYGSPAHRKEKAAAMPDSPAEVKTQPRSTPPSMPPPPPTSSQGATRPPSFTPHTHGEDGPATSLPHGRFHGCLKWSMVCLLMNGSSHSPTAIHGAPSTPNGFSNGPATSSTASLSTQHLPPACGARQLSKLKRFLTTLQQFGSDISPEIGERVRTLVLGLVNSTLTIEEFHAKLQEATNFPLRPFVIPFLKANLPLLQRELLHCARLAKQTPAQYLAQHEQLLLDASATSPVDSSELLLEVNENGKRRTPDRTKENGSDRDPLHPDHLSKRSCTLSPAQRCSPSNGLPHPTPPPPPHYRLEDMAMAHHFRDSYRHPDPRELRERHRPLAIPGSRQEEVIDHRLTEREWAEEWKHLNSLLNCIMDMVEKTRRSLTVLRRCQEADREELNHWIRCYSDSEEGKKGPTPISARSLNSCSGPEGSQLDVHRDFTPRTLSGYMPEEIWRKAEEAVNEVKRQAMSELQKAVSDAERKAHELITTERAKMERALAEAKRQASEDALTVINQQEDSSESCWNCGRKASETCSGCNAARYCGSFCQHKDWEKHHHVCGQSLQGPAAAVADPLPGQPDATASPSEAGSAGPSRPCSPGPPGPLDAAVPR


Experiments:
[1] = target: T1, ETO2 (endogenous) (mouse (endogenous in MEL)); experiment: co-IP; endogenous ETO2 antibody, 0.5 mg MEL nuclear extract at 100 mM KCl, benzonase, overnight at 4 °C, protein A or G Sepharose, western blot; species-matched IgG control
ETO2-V5-Bio = target: T2, ETO2-V5-Bio; experiment: pull-down; streptavidin capture of biotinylated ETO2-V5-Bio from nuclear extracts of MEL cells expressing BirA; western blot

binding [1] | binding (ETO2-V5-Bio) | Molecule
binds | – | growth factor-independent 1B (GFI1B) (from UniProt O70237 1-330)
– | binds | LIM-domain-binding protein 1 (LDB1) (protein, UniProt P70662 1-411) MSVGCACPGCSSKSFKLYSPKEPPNGNAFPPFHPGTMLDRDVGPTPMYPPTYLEPGIGRHTPYGNQTDYRIFELNKRLQNWTEECDNLWWDAFTTEFFEDDAMLTITFCLEDGPKRYTIGRTLIPRYFRSIFEGGATELYYVLKHPKEAFHSNFVSLDCDQGSMVTQHGKPMFTQVCVEGRLYLEFMFDDMMRIKTWHFSIRQHRELIPRSILAMHAQDPQMLDQLSKNITRCGLSNSTLNYLRLCVILEPMQELMSRHKTYSLSPRDCLKTCLFQKWQRMVAPPAEPARQQPSKRRKRKMSGGSTMSSGGGNTNNSNSKKKSPASTFALSSQVPDVMVVGEPTLMGGEFGDEDERLITRLENTQFDAANGIDDEDSFNNSPALGANSPWNSKPPSSQESKSENPTSQASQ
